Results are given in words; binding and its absence hold for the method and conditions named. Binding seen in cells or lysates may run through a third protein. Some results given as binding are weak or reduced against the parent protein; the word gives no strength.

Protein sequences, listed by entry. Tags and fused reporters are not part of them. Lines headed by an entry give the natural chain unless they say otherwise; changes in a name come on top. Chains listed by the source or under a name are the forms on record and can include a tag or linker.
UniProt P97471: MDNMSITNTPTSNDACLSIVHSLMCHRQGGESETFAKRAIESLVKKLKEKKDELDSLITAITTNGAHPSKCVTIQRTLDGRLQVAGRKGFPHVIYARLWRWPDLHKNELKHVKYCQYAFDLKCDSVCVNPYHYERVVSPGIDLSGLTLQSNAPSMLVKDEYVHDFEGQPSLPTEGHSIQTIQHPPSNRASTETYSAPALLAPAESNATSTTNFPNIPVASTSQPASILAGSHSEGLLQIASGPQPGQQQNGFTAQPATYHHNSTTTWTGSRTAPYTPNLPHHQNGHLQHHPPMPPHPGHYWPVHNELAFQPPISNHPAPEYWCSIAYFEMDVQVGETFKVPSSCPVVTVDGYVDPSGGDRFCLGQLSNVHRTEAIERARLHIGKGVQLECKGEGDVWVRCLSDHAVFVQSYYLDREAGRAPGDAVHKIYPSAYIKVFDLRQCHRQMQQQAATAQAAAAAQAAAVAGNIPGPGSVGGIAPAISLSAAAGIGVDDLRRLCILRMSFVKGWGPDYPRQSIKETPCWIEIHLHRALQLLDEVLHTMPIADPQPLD
UniProt Q62432: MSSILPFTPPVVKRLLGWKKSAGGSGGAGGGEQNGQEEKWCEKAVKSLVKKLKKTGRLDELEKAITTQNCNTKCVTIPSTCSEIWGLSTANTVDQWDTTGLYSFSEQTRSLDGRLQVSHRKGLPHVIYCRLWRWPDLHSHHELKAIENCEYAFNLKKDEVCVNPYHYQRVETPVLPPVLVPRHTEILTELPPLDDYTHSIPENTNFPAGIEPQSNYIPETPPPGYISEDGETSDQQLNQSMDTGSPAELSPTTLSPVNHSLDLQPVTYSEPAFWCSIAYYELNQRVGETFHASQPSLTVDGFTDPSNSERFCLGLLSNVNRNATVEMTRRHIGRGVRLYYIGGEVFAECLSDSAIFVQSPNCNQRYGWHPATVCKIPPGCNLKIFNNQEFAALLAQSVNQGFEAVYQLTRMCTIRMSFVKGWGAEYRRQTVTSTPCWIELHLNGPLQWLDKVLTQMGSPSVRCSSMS
SMAD2β (expressed from the endogenous Smad2 locus of S2ΔE3 mouse embryonic stem cells) (Q62432-2, form named): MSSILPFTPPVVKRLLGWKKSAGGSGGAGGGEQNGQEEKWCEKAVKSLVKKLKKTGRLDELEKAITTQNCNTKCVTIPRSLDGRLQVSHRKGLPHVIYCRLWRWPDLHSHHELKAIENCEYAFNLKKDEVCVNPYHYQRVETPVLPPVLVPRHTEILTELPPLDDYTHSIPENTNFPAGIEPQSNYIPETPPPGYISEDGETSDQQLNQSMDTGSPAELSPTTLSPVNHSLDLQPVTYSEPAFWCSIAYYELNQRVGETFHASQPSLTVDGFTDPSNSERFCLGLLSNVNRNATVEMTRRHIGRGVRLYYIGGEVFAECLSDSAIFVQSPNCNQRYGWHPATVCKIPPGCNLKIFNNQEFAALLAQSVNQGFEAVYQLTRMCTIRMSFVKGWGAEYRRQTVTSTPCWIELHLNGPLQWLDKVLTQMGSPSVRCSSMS
UniProt Q8BUN5: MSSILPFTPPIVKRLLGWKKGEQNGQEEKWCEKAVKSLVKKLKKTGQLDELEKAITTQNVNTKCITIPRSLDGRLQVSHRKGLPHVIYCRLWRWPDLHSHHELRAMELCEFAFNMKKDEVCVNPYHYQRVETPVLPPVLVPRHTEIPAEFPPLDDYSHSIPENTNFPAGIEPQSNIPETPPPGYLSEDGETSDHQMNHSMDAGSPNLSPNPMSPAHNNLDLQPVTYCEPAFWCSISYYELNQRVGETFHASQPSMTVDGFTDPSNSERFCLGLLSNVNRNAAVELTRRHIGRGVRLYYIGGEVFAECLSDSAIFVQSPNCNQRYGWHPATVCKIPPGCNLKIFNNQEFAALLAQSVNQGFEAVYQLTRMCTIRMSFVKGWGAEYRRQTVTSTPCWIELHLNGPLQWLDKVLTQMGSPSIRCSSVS

Results on three substances are retold here after paper PMC6824466.

Test [1] has as its target SMAD4 (endogenous, mouse embryonic stem cells) (mouse (endogenous in ES-E14TG2a.4 mESCs)) (UniProt P97471). The test can be described thus: co-IP; wild-type and S2ΔE3 mESCs incubated with SB for 6 h, then 2 h with SB or the indicated concentrations of Activin; anti-SMAD4 immunoprecipitates from whole-cell lysate blotted with anti-SMAD2/2β or anti-SMAD4.
The target of test [2] is SMAD2 (endogenous, mouse embryonic stem cells) (mouse (endogenous in ES-E14TG2a.4 mESCs)) (UniProt Q62432). Description: co-IP; mESCs incubated with Activin A for 1.5 h, fractionated into nuclear and cytosolic fractions; anti-SMAD2 and anti-SMAD3 immunoprecipitates blotted with anti-SMAD4 and anti-SMAD2/3 (Nuclear Complex Co-IP Kit).
Test [3] deals with SMAD3 (endogenous, mouse embryonic stem cells) (mouse (endogenous in ES-E14TG2a.4 mESCs)) (UniProt Q8BUN5). Described as above.
Test [4] concerns the target SMAD2 (endogenous, mouse embryonic stem cells) (mouse (endogenous in ES-E14TG2a.4 mESCs)) (UniProt Q62432). The test can be described thus: condition: only cells treated with the Nodal/Activin receptor inhibitor SB431542 (SB) for 6 h; co-IP; mESCs incubated with SB431542 (SB) for 6 h, fractionated into nuclear and cytosolic fractions; anti-SMAD2 and anti-SMAD3 immunoprecipitates blotted with anti-SMAD4 and anti-SMAD2/3.

Test [5] has as its target SMAD3 (endogenous, mouse embryonic stem cells) (mouse (endogenous in ES-E14TG2a.4 mESCs)) (UniProt Q8BUN5). The description is as above.

For the substance “SMAD2 (endogenous, mouse embryonic stem cells) (from UniProt Q62432 1-467)”, the binding entry in test [1] is “binds”.

For “SMAD2β (expressed from the endogenous Smad2 locus of S2ΔE3 mouse embryonic stem cells) (from UniProt Q62432-2 1-437)”, the binding result in test [1] is recorded as “binds”.

“SMAD4 (endogenous, mouse embryonic stem cells) (from UniProt P97471 1-551)”: the binding result in test [2] is on record as “binds”; in test [3], “binds weakly”; in test [4] it was “no binding”; in test [5], “no binding”.
